Assay results published in PubChem BioAssay AID588590 (National Center for Advancing Translational Sciences (NCATS), 2011).
Screen size: about 390,000 compounds; about 4,000 (1%) were called active. Inconclusive results, whose numbers are uncertain, are shown with a selection of clear calls. Calls follow the shape of the dose curve; as a rule, active = well fitted inhibition curve with a large enough effect; inconclusive = small, poorly fitted or top-dose-only effect, or another doubt; inactive = no such curve, though single readings can be large or run the other way. Where the call is inconclusive, the potency comes from a doubtful curve fit.

By UniProt entry, the sequences of proteins in these tests, tags left out. Where a name states a change or a piece, a line headed by the entry shows the natural chain unless it says otherwise.
UniProt Q9UNA4: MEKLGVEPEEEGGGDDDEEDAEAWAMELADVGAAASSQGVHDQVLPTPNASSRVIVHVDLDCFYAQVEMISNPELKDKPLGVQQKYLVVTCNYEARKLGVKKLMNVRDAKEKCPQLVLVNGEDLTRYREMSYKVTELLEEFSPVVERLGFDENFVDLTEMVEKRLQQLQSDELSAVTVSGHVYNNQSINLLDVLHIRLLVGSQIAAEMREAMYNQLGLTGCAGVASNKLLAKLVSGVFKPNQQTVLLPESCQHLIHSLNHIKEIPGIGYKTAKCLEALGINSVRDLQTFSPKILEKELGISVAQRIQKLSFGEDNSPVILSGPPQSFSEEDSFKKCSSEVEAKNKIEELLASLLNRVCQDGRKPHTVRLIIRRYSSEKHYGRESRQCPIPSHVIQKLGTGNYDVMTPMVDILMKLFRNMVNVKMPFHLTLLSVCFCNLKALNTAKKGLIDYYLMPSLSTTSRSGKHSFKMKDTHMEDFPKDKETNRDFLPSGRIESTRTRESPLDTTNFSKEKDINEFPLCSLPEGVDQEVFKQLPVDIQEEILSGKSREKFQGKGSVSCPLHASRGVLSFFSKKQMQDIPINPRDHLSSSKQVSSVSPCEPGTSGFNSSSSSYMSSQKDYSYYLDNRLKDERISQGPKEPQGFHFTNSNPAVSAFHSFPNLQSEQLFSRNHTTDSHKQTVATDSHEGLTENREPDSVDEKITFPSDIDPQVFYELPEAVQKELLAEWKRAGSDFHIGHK

biological target: DNA polymerase iota (Homo sapiens) (UniProt Q9UNA4); test: qHTS for Inhibitors of Polymerase Iota; settings: Pol iota fluorescent replication assay, 10 min; series mostly up to 115 µM
Procedure, shortened: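 Pol iota at 10 nM preincubated 15 min with compounds at room temperature; reaction started with fluorescent substrate, 50 nM final. Fluorescence read kinetically at 0 and 10 min; buffer-only wells as negative control.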
Potency is read from the fitted curve at half-maximal effect.

Question: With `Cc1cc(C(=O)COC(=O)c2cccn2C)c(C)n1Cc1ccco1` as the molecule, how does the Potency read?
Answer: inconclusive: 70.8 µM [inhibitor, single point]

Question: For `COc1ccc(-c2cc3ccccc3[nH]2)cc1`, which Potency is on record?
Answer: inconclusive: 3.16 µM [inhibitor, full curve, poor fit]

Question: How did the Potency turn out when `O=C(CCCC(=O)c1ccccc1)Nc1ccc(O)cc1` was run?
Answer: inconclusive: 14.1 µM [inhibitor, full curve, poor fit]

Question: How did the Potency turn out when `Cc1cc(Cn2nc(C(=O)NCc3cccc(Br)c3)cc2-c2ccccc2)on1` was run?
Answer: inconclusive: 3.55 µM [inhibitor, full curve, poor fit]

Question: How did the Potency turn out when `O=C(O)CN1C(=O)N/C(=C\c2cccn2-c2ccc(P(=O)(O)O)cc2)C1=O` was run?
Answer: inconclusive: 12.6 µM [inhibitor, partial curve, poor fit]

Question: Which Potency does the source give for `Cc1ccccc1/C=C1\SC(=S)N(/N=C/c2cc([N+](=O)[O-])ccc2O)C1=O` here?
Answer: inconclusive: 31.6 µM [inhibitor, partial curve]

Question: Which Potency does the source give for `Cc1ccc(S(=O)(=O)Nc2ccccc2F)cc1C(=O)NNC(=O)c1csc(N2CCOCC2)n1` here?
Answer: inconclusive: 44.7 µM [inhibitor, partial curve, poor fit]

Question: With `COc1ccc2nc3sc(C(=O)Nc4ccccc4F)cc3cc2c1` as the molecule, how does the Potency read?
Answer: inconclusive: 100 µM [inhibitor, single point]

Question: `CCOc1ccc(NS(=O)(=O)c2ccc3[nH]cc(C(=O)NCc4ccco4)c(=O)c3c2)cc1` was tested. Which Potency did it give?
Answer: inconclusive: 89.1 µM [inhibitor, single point]

Question: Which Potency does the source give for `CCOC(=O)c1nn(-c2ccc(F)cc2)c(=O)cc1OCC(=O)Nc1ccc(OCC)cc1` here?
Answer: inconclusive: 2.51 µM [inhibitor, full curve, poor fit]

Question: For `COc1cc(NC(=O)c2csc(-c3ccncc3)n2)cc(C(=O)Nc2cccc(C(F)(F)F)c2)c1`, which Potency is on record?
Answer: inconclusive: 14.1 µM [inhibitor, partial curve, poor fit]

Question: `CCc1nnc(NS(=O)(=O)c2ccc(Nc3ccc([N+](=O)[O-])c4nonc34)cc2)s1` was tested. Which Potency did it give?
Answer: inactive

Question: For `O=C(c1ccco1)N1CCN(Cc2ccc(Cl)cc2)CC1`, which Potency is on record?
Answer: inactive

Question: `O=C(CS(=O)(=O)c1c[nH]c2ccccc12)N1CCCCCC1` was tested. Which Potency did it give?
Answer: inconclusive: 89.1 µM [inhibitor, partial curve, poor fit]

Question: `O=C(CSc1ccccc1)N[C@@H](Cc1ccccc1)C(=O)O` was tested. Which Potency did it give?
Answer: inconclusive: 31.6 µM [inhibitor, single point]

Question: For `O=C(c1cc(-c2ccco2)nc2ccccc12)N(Cc1nnc(-c2ccc(Cl)cc2)o1)C1CC1`, which Potency is on record?
Answer: inconclusive: 35.5 µM [inhibitor, partial curve, poor fit]

Question: Which Potency does the source give for `Cc1ccc(C)c(N2CCN(c3nc4ccccc4c4nc(CCn5nc(C)cc5C)nn34)CC2)c1` here?
Answer: inactive

Question: How did the Potency turn out when `C=CCc1cccc2cc(C(=O)NCc3cccnc3)c(=O)oc12` was run?
Answer: inconclusive: 70.8 µM [inhibitor, partial curve, poor fit]

Question: With `CCOCCCn1c(=N)c(S(=O)(=O)c2ccc(C)cc2)cc2c(=O)n3cccc(C)c3nc21` as the molecule, how does the Potency read?
Answer: inconclusive: 100 µM [inhibitor, single point]

Question: `Cc1ccc(S(=O)(=O)N2CCN(CC(=O)NC(=O)NCc3ccco3)CC2)cc1C` was tested. Which Potency did it give?
Answer: inconclusive: 79.4 µM [inhibitor, single point]

Question: For `CCc1ccc(-n2c(SCC(=O)Nc3cccc(S(=O)(=O)NC4=NCCCCC4)c3)nc3ccccc3c2=O)cc1`, which Potency is on record?
Answer: inconclusive: 79.4 µM [inhibitor, single point]

Question: Which Potency does the source give for `O=[N+]([O-])c1ccc(C[n+]2cccc3ccccc32)cc1` here?
Answer: inactive

Question: Which Potency does the source give for `CCCCOC(=O)NS(=O)(=O)c1sc(CC(C)C)cc1-c1ccc(Cn2c(CC)nc3c(C)cc(C)nc32)cc1` here?
Answer: inconclusive: 20 µM [inhibitor, partial curve, poor fit]

Question: With `CCc1nn(CC(=O)NC(C)C)c(=O)c2cc3cc(F)ccc3n12` as the molecule, how does the Potency read?
Answer: inactive

Question: For `Nc1cc(OC(=O)c2ccccc2Br)nn1S(=O)(=O)c1ccccc1`, which Potency is on record?
Answer: inconclusive: 7.08 µM [inhibitor, single point]

Question: With `OCC[C@@H]1C[C@H](O)[C@@H](O)[C@@]2(CCc3ccccc3CO2)O1` as the molecule, how does the Potency read?
Answer: inconclusive: 39.8 µM [inhibitor, partial curve, poor fit]

Question: Which Potency does the source give for `CCN(C[C@H]1N[C@@](CC)(C(=O)OC)[C@H]2C(=O)N(C)C(=O)[C@@H]12)S(=O)(=O)c1ccccc1` here?
Answer: inconclusive: 39.8 µM [inhibitor, partial curve, poor fit]

Question: Which Potency does the source give for `Cc1cc(Nc2cccc(C(F)(F)F)c2)nc2ccc(NC(=O)c3ccc(N(C)C)cc3)cc12` here?
Answer: inconclusive: 79.4 µM [inhibitor, partial curve, poor fit]

Question: `O=C(O)c1cccc2[nH]c(C(F)(F)F)nc12` was tested. Which Potency did it give?
Answer: inactive

Question: With `COc1ccc(-c2csc(NC(=S)NC(=O)c3cccs3)n2)cc1OC` as the molecule, how does the Potency read?
Answer: inconclusive: 39.8 µM [inhibitor, single point]

Question: How did the Potency turn out when `COc1ccc(OC)c(N=Cc2c(O)[nH]c3ccccc23)c1` was run?
Answer: inconclusive: 89.1 µM [inhibitor, single point]

Question: For `O=S(=O)(c1cnc[nH]1)N1CCN(c2ccc(F)cc2)CC1`, which Potency is on record?
Answer: inconclusive: 56.2 µM [inhibitor, partial curve, poor fit]

Question: With `Oc1c(Br)cc(/C=N/NC(=S)NCc2ccco2)cc1Br` as the molecule, how does the Potency read?
Answer: inactive

Question: Which Potency does the source give for `O=C(NCCc1ccccc1)c1ccc2c(=O)[nH]c3c(C(=O)NCC4CCCO4)sc(=S)n3c2c1` (stereo not drawn) here?
Answer: inconclusive: 25.1 µM [inhibitor, partial curve]

Question: How did the Potency turn out when `Cc1ccc(C2CN(c3ccccc3)CC2C(=O)c2ccc(F)cc2)cc1` (stereo not drawn) was run?
Answer: inconclusive: 70.8 µM [inhibitor, partial curve, poor fit]

Question: `c1ccc(N2CCN(Cc3nnnn3C3CCCCC3)CC2)cc1` was tested. Which Potency did it give?
Answer: inconclusive: 112 µM [inhibitor, single point]

Question: `CCOc1ccc(CNC(=O)C2CCCN(c3nc4c(C)cc(C)cc4s3)C2)cc1` (stereo not drawn) was tested. Which Potency did it give?
Answer: inactive

Question: How did the Potency turn out when `COc1ccc(-c2nc3n(n2)C(=O)CC(c2ccco2)S3)cc1` (stereo not drawn) was run?
Answer: inconclusive: 28.2 µM [inhibitor, full curve, poor fit]
